In the test the target is CD47 (human) (UniProt Q08722). Description: flow cytometry on SKBR3 WT (CD20-/CD47+) and SKBR3-CD20 cells, detection anti-IgA PE.

Sequences of proteins named here, by UniProt entry; tags and fusion partners are left off. Residues count along the entry.
UniProt Q08722, residues 19-323: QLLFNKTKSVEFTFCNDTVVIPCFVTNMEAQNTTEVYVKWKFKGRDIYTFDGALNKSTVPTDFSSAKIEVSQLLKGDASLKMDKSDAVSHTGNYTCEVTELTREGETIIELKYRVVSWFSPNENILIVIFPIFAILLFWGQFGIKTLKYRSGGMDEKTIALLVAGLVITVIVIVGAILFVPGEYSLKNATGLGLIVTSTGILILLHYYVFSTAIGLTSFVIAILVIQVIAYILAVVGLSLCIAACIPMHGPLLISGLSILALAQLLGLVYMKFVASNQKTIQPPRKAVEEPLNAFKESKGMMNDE

No constants are given. Whether binding was seen depends on the method and setting. Some entries that bind do so weakly or less than the wild type.

Here are results for 1 molecule from patent US20210332131A1.

B1: IgA3.0-2.3D11 (antibody, V domains shown)
VH: QVQLQESGPGLVKPSGTLSLTCAVSGVSIRSINWWNWVRQPPGKGLEWIGEIYHSGSTNYNPSLKSRVTISVDKSKNQFSLKLNSVTAADTAVYYCARDGGIAVTDYYYYGLDVWGQGTTVTVSS
VL: EIVLTQSPATLSLSPGERATLSCRASESVSSNLAWYQQKPGQAPRLLIYGAFNRATGIPARFSGSGSGTDFTLTISSLEPEDFAVYYCQQRSDWFTFGGGTKVEIKR
For B1, the binding result was “binds”.
